Reference: PubChem BioAssay AID652243 (Drosophila RNAi Screening Center, 2013)
In all, the deposit lists about 24,000 reagents; this is a random part of those with a known target gene and a result. Of all reagents, 246 (1%) were called active. 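Plates not normalised; calls are printed but the firefly/Renilla ratio behind them is not deposited; fold cut for lowering reported inconsistently.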 The raw values are shown without normalisation. A number with no mark means an inactive call. The numbers tell different reagents against one gene apart. Names joined by + are all predicted targets of the reagent. No sequences are given here. Not given: the amount of reagent.

- Aim: 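Fly genes required for human androgen receptor driven transcription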 (primary screen)
- Cells: Drosophila S2R+ cells
- Reagent: long dsRNA against Drosophila genes
- Timing: 72 h (48 h, then 24 h hormone)
- Treatment: synthetic androgen R1881 at 10 nM for 24 h
- Measurement: 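Firefly light from an androgen-responsive reporter and Renilla control light per well, raw and unnormalised, for each of two replicates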
- Reading the numbers: firefly reporter light: higher = more light from androgen-responsive reporter; Renilla control light: higher = more constitutive control signal (cell number, transfection)
- Rule for the call: 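Across duplicate plates, a knock-down whose log firefly/Renilla ratio shifted a set fold down or up from the GFP/LacZ control mean was a hit; the downward cut appears as both 1.5 and 3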
- Calls: active = hit: reporter lowered or raised; inactive = no hit

Which result is listed for GCC88 #1?
firefly reporter light, replicate 1: 96350; firefly reporter light, replicate 2: 1.60e5; Renilla control light, replicate 1: 1.96e6; Renilla control light, replicate 2: 1.88e6

For GCC88 #2, what was measured?
firefly reporter light, replicate 1: 1.13e6; firefly reporter light, replicate 2: 8.92e5; Renilla control light, replicate 1: 1.30e6; Renilla control light, replicate 2: 1.35e6

For CR32733 + CG32797, how do the results read?
firefly reporter light, replicate 1: 1.96e5; firefly reporter light, replicate 2: 2.15e5; Renilla control light, replicate 1: 1.90e6; Renilla control light, replicate 2: 2.13e6

Which result is listed for GstS1?
firefly reporter light, replicate 1: 9.23e5; firefly reporter light, replicate 2: 8.83e5; Renilla control light, replicate 1: 2.14e6; Renilla control light, replicate 2: 1.30e6

For how, what was measured?
firefly reporter light, replicate 1: 2.83e5; firefly reporter light, replicate 2: 2.67e5; Renilla control light, replicate 1: 4.70e5; Renilla control light, replicate 2: 4.38e5

With CG14302, how do the results read?
firefly reporter light, replicate 1: 3.40e5; firefly reporter light, replicate 2: 2.86e5; Renilla control light, replicate 1: 4.93e6; Renilla control light, replicate 2: 3.21e6

With gbb #1, what was measured?
firefly reporter light, replicate 1: 2.78e5; firefly reporter light, replicate 2: 3.53e5; Renilla control light, replicate 1: 1.72e6; Renilla control light, replicate 2: 1.47e6

With gbb #2, what does the deposit list?
firefly reporter light, replicate 1: 7.58e5; firefly reporter light, replicate 2: 5.19e5; Renilla control light, replicate 1: 5.78e5; Renilla control light, replicate 2: 4.66e5

Which result is listed for Reg-5?
firefly reporter light, replicate 1: 5.16e5; firefly reporter light, replicate 2: 1.23e6; Renilla control light, replicate 1: 8.43e5; Renilla control light, replicate 2: 1.72e6

For CG11635, how do the results read?
firefly reporter light, replicate 1: 5.15e5; firefly reporter light, replicate 2: 3.60e5; Renilla control light, replicate 1: 2.39e6; Renilla control light, replicate 2: 2.29e6

For SmydA-6, what does the deposit list?
firefly reporter light, replicate 1: 80448; firefly reporter light, replicate 2: 87372; Renilla control light, replicate 1: 1.19e6; Renilla control light, replicate 2: 1.19e6

With Cpr67Fa1, how do the results read?
firefly reporter light, replicate 1: 2.87e5; firefly reporter light, replicate 2: 2.54e5; Renilla control light, replicate 1: 3.52e6; Renilla control light, replicate 2: 2.84e6

For Blos2 #1, what does the deposit list?
firefly reporter light, replicate 1: 1.26e5; firefly reporter light, replicate 2: 1.51e5; Renilla control light, replicate 1: 1.49e6; Renilla control light, replicate 2: 1.43e6

Which result is listed for Blos2 #2?
firefly reporter light, replicate 1: 7.40e5; firefly reporter light, replicate 2: 9.22e5; Renilla control light, replicate 1: 7.83e5; Renilla control light, replicate 2: 8.26e5

For CG17806, what was measured?
firefly reporter light, replicate 1: 77708; firefly reporter light, replicate 2: 86562; Renilla control light, replicate 1: 4.37e5; Renilla control light, replicate 2: 6.72e5

For mRpS7, what was measured?
firefly reporter light, replicate 1: 5.38e5; firefly reporter light, replicate 2: 5.39e5; Renilla control light, replicate 1: 1.98e6; Renilla control light, replicate 2: 1.98e6

For CG33985, how do the results read?
firefly reporter light, replicate 1: 3.89e5; firefly reporter light, replicate 2: 7.14e5; Renilla control light, replicate 1: 9.61e5; Renilla control light, replicate 2: 1.88e6

With Ir48b, what does the deposit list?
firefly reporter light, replicate 1: 3.12e5; firefly reporter light, replicate 2: 2.71e5; Renilla control light, replicate 1: 1.77e6; Renilla control light, replicate 2: 1.50e6

How did the screen score SREBP?
firefly reporter light, replicate 1: 2.12e5; firefly reporter light, replicate 2: 1.12e5; Renilla control light, replicate 1: 2.39e6; Renilla control light, replicate 2: 1.38e6

With Gdi #1, how do the results read?
firefly reporter light, replicate 1: 9.65e5; firefly reporter light, replicate 2: 8.76e5; Renilla control light, replicate 1: 2.54e6; Renilla control light, replicate 2: 2.66e6

Which result is listed for Gdi #2?
firefly reporter light, replicate 1: 5.49e5; firefly reporter light, replicate 2: 3.67e5; Renilla control light, replicate 1: 1.04e6; Renilla control light, replicate 2: 9.18e5

Entries above whose gene name starts with C or c (6):
CR32733 + CG32797 — firefly reporter light, replicate 1 = 1.96e5; firefly reporter light, replicate 2 = 2.15e5; Renilla control light, replicate 1 = 1.90e6; Renilla control light, replicate 2 = 2.13e6
CG14302 — firefly reporter light, replicate 1 = 3.40e5; firefly reporter light, replicate 2 = 2.86e5; Renilla control light, replicate 1 = 4.93e6; Renilla control light, replicate 2 = 3.21e6
CG11635 — firefly reporter light, replicate 1 = 5.15e5; firefly reporter light, replicate 2 = 3.60e5; Renilla control light, replicate 1 = 2.39e6; Renilla control light, replicate 2 = 2.29e6
Cpr67Fa1 — firefly reporter light, replicate 1 = 2.87e5; firefly reporter light, replicate 2 = 2.54e5; Renilla control light, replicate 1 = 3.52e6; Renilla control light, replicate 2 = 2.84e6
CG17806 — firefly reporter light, replicate 1 = 77708; firefly reporter light, replicate 2 = 86562; Renilla control light, replicate 1 = 4.37e5; Renilla control light, replicate 2 = 6.72e5
CG33985 — firefly reporter light, replicate 1 = 3.89e5; firefly reporter light, replicate 2 = 7.14e5; Renilla control light, replicate 1 = 9.61e5; Renilla control light, replicate 2 = 1.88e6
